Results published in publication PMC7018852.
These are yes or no findings as the source states them, for the method shown. For part of these data: Binding seen in cells or lysates may run through a third protein. Some binding calls cover weakened binding; strength is not graded here.

Chains of the proteins cited; added tags and fusions are not shown. Lines headed by an entry give the natural chain unless they say otherwise; changes in a name come on top. Residues count along the entry.
UniProt P43406: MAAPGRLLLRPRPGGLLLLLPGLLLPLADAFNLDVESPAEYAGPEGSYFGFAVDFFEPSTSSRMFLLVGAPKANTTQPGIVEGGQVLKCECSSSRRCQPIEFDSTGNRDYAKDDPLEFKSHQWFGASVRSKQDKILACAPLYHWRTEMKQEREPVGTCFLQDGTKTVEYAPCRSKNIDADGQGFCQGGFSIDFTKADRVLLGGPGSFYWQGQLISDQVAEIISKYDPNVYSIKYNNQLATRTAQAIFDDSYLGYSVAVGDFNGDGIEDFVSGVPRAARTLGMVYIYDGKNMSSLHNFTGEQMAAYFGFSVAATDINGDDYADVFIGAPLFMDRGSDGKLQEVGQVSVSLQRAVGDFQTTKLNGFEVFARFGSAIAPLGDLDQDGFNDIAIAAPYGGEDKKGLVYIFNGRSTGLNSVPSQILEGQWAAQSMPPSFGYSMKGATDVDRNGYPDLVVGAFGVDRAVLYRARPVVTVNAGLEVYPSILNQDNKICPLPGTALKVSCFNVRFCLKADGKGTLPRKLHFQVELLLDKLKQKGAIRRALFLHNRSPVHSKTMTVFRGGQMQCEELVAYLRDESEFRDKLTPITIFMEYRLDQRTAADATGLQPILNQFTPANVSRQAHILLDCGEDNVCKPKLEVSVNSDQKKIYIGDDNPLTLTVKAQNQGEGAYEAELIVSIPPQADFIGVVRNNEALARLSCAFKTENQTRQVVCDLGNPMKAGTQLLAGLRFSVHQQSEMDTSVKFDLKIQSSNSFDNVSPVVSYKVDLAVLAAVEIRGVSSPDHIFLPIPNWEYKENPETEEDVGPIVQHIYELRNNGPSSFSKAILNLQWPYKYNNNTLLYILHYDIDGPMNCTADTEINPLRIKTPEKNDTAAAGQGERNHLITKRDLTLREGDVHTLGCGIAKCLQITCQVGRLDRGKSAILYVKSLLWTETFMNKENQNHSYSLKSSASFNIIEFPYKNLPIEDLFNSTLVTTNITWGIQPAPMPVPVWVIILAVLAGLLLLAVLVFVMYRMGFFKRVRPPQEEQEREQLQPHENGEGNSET
UniProt Q9Z0T9: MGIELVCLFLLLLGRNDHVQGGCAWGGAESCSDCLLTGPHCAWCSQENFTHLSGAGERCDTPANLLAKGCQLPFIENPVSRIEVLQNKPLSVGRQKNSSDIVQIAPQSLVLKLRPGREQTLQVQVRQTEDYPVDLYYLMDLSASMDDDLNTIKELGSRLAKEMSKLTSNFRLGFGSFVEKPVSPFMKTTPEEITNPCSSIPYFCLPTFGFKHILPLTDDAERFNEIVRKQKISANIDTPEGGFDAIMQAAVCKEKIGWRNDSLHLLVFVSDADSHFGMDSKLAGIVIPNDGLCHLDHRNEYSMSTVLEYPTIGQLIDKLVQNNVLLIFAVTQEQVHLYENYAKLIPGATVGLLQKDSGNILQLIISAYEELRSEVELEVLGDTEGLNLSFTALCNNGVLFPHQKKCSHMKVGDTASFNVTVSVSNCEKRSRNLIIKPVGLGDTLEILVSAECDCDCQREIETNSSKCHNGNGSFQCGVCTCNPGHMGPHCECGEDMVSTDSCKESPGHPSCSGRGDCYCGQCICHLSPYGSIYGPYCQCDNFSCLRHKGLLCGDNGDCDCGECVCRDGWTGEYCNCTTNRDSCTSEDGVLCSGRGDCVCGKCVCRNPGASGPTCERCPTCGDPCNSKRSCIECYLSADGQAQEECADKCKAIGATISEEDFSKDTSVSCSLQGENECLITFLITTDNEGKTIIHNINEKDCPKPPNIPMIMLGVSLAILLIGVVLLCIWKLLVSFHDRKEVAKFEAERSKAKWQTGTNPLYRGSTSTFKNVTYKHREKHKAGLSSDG
UniProt P01137, residues 30-278: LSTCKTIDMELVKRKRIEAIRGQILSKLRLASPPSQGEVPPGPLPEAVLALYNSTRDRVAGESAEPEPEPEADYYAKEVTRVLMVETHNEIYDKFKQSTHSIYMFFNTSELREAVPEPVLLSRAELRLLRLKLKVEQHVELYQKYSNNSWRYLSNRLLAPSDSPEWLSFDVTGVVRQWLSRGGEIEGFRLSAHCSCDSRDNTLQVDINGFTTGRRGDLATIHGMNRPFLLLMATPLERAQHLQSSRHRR

B1: recombinant human Del-1 (developmental endothelial locus-1) (protein, UniProt O43854 24-480)
chain: DICDPNPCENGGICLPGLADGSFSCECPDGFTDPNCSSVVEVASDEEEPTSAGPCTPNPCHNGGTCEISEAYRGDTFIGYVCKCPRGFNGIHCQHNINECEVEPCKNGGICTDLVANYSCECPGEFMGRNCQYKCSGPLGIEGGIISNQQITASSTHRALFGLQKWYPYYARLNKKGLINAWTAAENDRWPWIQINLQRKMRVTGVITQGAKRIGSPEYIKSYKIAYSNDGKTWAMYKVKGTNEDMVFRGNIDNNTPYANSFTPPIKAQYVRLYPQVCRRHCTLRMELLGCELSGCSEPLGMKSGHIQDYQITASSIFRTLNMDMFTWEPRKARLDKQGKVNAWTSGHNDQSQWLQVDLLVPTKVTGIITQGAKDFGHVQFVGSYKLAYSNDGEHWTVYQDEKQRKDKVFQGNFDNDTHRKNVIDPPIYARHIRILPWSWYGRITLRSELLGCTEEE

Key:
[1] = target: αvβ6 integrin lentivirally expressed by HEK293T cells (mouse) (UniProt P43406+Q9Z0T9); experiment: co-IP; HEK293T cells expressing αvβ6 integrin incubated 6 h at 37°C with Del-1 (1 μg/mL; 20 nM) and/or LAP (0.5 μg/mL; 20 nM); lysed in 1% CHAPS, 30 mM Tris-HCl pH 7.5, 150 mM NaCl; anti-Flag immunoprecipitation; blots for Del-1, LAP, Flag; only the binder purified
[2] = target: recombinant latency-associated peptide (LAP) (UniProt P01137); experiment: ELISA; binding of Del-1 to immobilized αvβ3 integrin and LAP, with or without pretreatment with αvβ3 integrin (Figure S1B); methods of this experiment not shown; both purified

Molecule | binding [1] | binding [2]
recombinant latency-associated peptide (LAP) (from UniProt P01137 30-278) | binds | 
B1 | binds | binds
